{"source": "patent US9243237B2", "about": "“Method for mass production of factor VII/VIIA” (HANMI SCIENCE CO., LTD, priority 2010, dated 2016)", "tested_on": "hFVII-expressing recombinant CHO cell line (HMF708)", "test": "Growth of the cell line in mass-scale production medium (4 L incubation tanks, continuous feed) containing sodium butyrate, hFVII level by enzyme immunoassay", "assay_type": "cell-based, Chinese hamster", "settings": "culturing stopped when cellular activity less than 80%", "procedure": "The transformed cells of Example <2-1> were seeded at a density of 2×10^4 cells/well to 24-well plates. When the cells were grown to almost full confluence, serum-free CHO-A-SFM (Gibco, Cat. No. 05-5072EF) supplemented with 0.3 mM sodium butyrate (Sigma, Cat. No. B5887) was aliquoted in an amount of 200 μL/well, followed by incubation at 33° C. for 48 hours in a 5% CO2 incubator. The cell culture was transferred to 1.5 mL tubes and centrifuged. Expression levels of human factor VII in the supernatants were measured by taking measurements using an enzyme immunoassay kit (American Diagnostica, Cat. no. 877) according to the manufacturer's instruction. In detail, the cell culture and the standard substance enclosed in the kit were diluted to certain concentrations in physiological saline containing 0.05% Tween-20, and the dilutions were added in an amount of 100 μL to each well of the kit and allowed to react at room temperature for one hour on a plate shaker. After being washed four times with the washing solution enclosed in the kit, each of the wells was incubated at room temperature for one hour with 100 μL of an anti-human factor VII antibody on a plate shake. Each well was again washed four times with the washing solution and then incubated at room temperature for 30 min with 100 μL of an HRP (horseradish peroxidase)-conjugated antibody to the anti-human factor VII antibody. Subsequently, the wells were washed four times, and incubated with 100 μL of a substrate per well at room temperature. Five minutes later, 50 μL of a stopping solution was added to each well, followed by measuring absorbance at 450 nm. A standard curve and a function were obtained from the concentrations of the standard solution and the absorbance values obtained.\nOne vial (1×10^7 cells/mL) of the hFVII-expressing cell line which had been selected and assimilated to suspension culture in Example <2-3> was taken from a liquid nitrogen tank and thawed as soon as possible in a 37° C. bath. After being washed once with a seed culturing medium (EX-CELL CHO medium (Sigma, Cat. No. 63225C) supplemented with 0.3 g/L glutamine), the cell culture was centrifuged at 90×g for min and then inoculated into 50 mL of a seed culture medium in an Erlenmeyer flask (Corning, USA cat#431144). When grown for 1-2 days to a density of 10×10^5 cell/mL in a CO2 incubator (37° C., 5% CO2), the cells were centrifuged again in the same manner and then sub-cultured in 100 mL of a fresh seed culture medium in a new Erlenmeyer flask. The double-volume passage was continued until a sufficient number of cells were achieved. […]\nIn addition, after the cell cultures taken during the cultivation was centrifuged, the levels of hFVII in the supernatants were measured using an enzyme immunoassay method as in Example <2-2>.", "data": [{"smiles": "CCCC(=O)[O-].[Na+]", "note": "[Sodium Butyrate, sodium butyrate]", "values": [{"measurement": "Period of Time of Production (% compared to control)", "setting": "0.3 mM sodium butyrate (control)", "result": 100.0, "unit": "%"}, {"measurement": "Period of Time of Production (% compared to control)", "setting": "1 mM sodium butyrate, control = 0.3 mM", "result": 83.3, "unit": "%"}, {"measurement": "Period of Time of Production (% compared to control)", "setting": "1.5 mM sodium butyrate, control = 0.3 mM", "result": 72.2, "unit": "%"}, {"measurement": "Period of Time of Production (% compared to control)", "setting": "2.0 mM sodium butyrate, control = 0.3 mM", "result": 61.1, "unit": "%"}]}]}
